Assay results taken from the supplement of paper PMC9433722.
Counter-ions that a name gives are not always drawn. Some of the results follow. Many values rest on one well or one pass, so single values are uncertain.

Legend:
Saos-2 = assay: cell viability (CCK-8) relative to DMSO control (% of control); higher = less cytotoxic; conditions: 10 µM; 48 h
U2OS = assay: as above; conditions: 10 µM; 48 h

| Structure (SMILES) | cell viability (Saos-2) | cell viability (U2OS) |
| --- | --- | --- |
| C=CC1=C(C(=O)O)N2C(=O)[C@@H](NC(=O)/C(=N\OCC(=O)O)c3csc(N)n3)[C@H]2SC1 [Cefixime] | 112 | 65.7 |
| Nc1ccc(S(N)(=O)=O)cc1 [Sulfanilamide] | 112 | 86.1 |
| CN1CCC[C@@H]1CCO[C@](C)(c1ccccc1)c1ccc(Cl)cc1 [Clemastine Fumarate] | 61.2 | 90 |
| CCCCC(=O)N(Cc1ccc(-c2ccccc2-c2nnn[nH]2)cc1)[C@H](C(=O)O)C(C)C [Valsartan] | 136 | 84.3 |
| COc1cc2nc(N(C)CCCNC(=O)C3CCCO3)nc(N)c2cc1OC (configuration not stated) [Alfuzosin] | 66.4 | 112 |
| Nc1ccc(O)c(C(=O)O)c1 [5-Aminosalicylic acid] | 69.2 | 99 |
